PubChem BioAssay AID504764, Drosophila RNAi Screening Center | 2011
The screen tested about 22,000 reagents; below is a random part of those with a known target gene and a result. Of all reagents, 403 (1.9%) were called active. 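Unnormalised raw counts per well; ratio z-scores behind the hit calls and whether each hit raises or lowers signal are not deposited.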 The numbers tell different reagents against one gene apart. Reagent sequences are not shown. Not given: the amount of reagent.

Test: 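Genome-wide screen for regulators of Notch-driven gene expression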 (primary screen)
Cell system: Drosophila Kc167 cells
Knock-down reagent: long dsRNA against Drosophila genes
Duration: about 5 days (4 days dsRNA, then 24 h after transfection)
Treatment: transfection of constitutively active membrane-tethered Notch lacking the extracellular domain, read 24 h later
Measurement: 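Firefly luciferase from an E(spl)m3 reporter with active Notch, plus control-promoter and uninduced reporter wells for normalisation; unnormalised counts, duplicate wells a and b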
Reading the numbers: induced reporter light, run 1, well a and induced reporter light, run 1, well b: higher = more light from the Notch target reporter with active Notch; control promoter light, run 1, well a and control promoter light, run 1, well b: higher = more light from the viral control promoter (cell number, transfection, viability); uninduced reporter light, run 1, well a: higher = more light from the Notch target reporter without active Notch
Rule for the call: 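Hit if the duplicate-averaged log2 ratio of induced to control-promoter light gives a plate-wise z beyond ±2, or induced to uninduced beyond ±1.8; weak-control or discordant-duplicate wells dropped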
Meaning of the calls: active = modifier hit (raised or lowered Notch signal); inactive = not a hit

CG9593 (GeneID 41912): induced reporter light, run 1, well a = 2.33e5; induced reporter light, run 1, well b = 2.34e5; control promoter light, run 1, well a = 2.22e5; control promoter light, run 1, well b = 2.34e5; uninduced reporter light, run 1, well a = 17230; activity call = inactive
Cpr51A (GeneID 36613): induced reporter light, run 1, well a = 72445; induced reporter light, run 1, well b = 1.01e5; control promoter light, run 1, well a = 1.25e5; control promoter light, run 1, well b = 1.12e5; uninduced reporter light, run 1, well a = 8785; activity call = inactive
COX4 (GeneID 35279): induced reporter light, run 1, well a = 72120; induced reporter light, run 1, well b = 83155; control promoter light, run 1, well a = 76855; control promoter light, run 1, well b = 74185; uninduced reporter light, run 1, well a = 5025; activity call = inactive
mRpL22 (GeneID 32662): induced reporter light, run 1, well a = 47810; induced reporter light, run 1, well b = 56430; control promoter light, run 1, well a = 64890; control promoter light, run 1, well b = 67285; uninduced reporter light, run 1, well a = 5700; activity call = inactive
ItgaPS4 (GeneID 36693): induced reporter light, run 1, well a = 86320; induced reporter light, run 1, well b = 83125; control promoter light, run 1, well a = 98475; control promoter light, run 1, well b = 91335; uninduced reporter light, run 1, well a = 7535; activity call = inactive
Hel89B (GeneID 41943): induced reporter light, run 1, well a = 1.77e5; induced reporter light, run 1, well b = 1.98e5; control promoter light, run 1, well a = 2.49e5; control promoter light, run 1, well b = 2.44e5; uninduced reporter light, run 1, well a = 14460; activity call = inactive
CG9030 (GeneID 32427): induced reporter light, run 1, well a = 93270; induced reporter light, run 1, well b = 84280; control promoter light, run 1, well a = 1.39e5; control promoter light, run 1, well b = 90455; uninduced reporter light, run 1, well a = 14960; activity call = inactive
Kr (GeneID 38012): induced reporter light, run 1, well a = 2.65e5; induced reporter light, run 1, well b = 2.75e5; control promoter light, run 1, well a = 2.02e5; control promoter light, run 1, well b = 2.56e5; uninduced reporter light, run 1, well a = 20085; activity call = inactive
Nmdar2 (GeneID 31107) #1: induced reporter light, run 1, well a = 1.14e5; induced reporter light, run 1, well b = 1.19e5; control promoter light, run 1, well a = 2.02e5; control promoter light, run 1, well b = 1.82e5; uninduced reporter light, run 1, well a = 9010; activity call = inactive
Nmdar2 (GeneID 31107) #2: induced reporter light, run 1, well a = 1.14e5; induced reporter light, run 1, well b = 1.03e5; control promoter light, run 1, well a = 1.76e5; control promoter light, run 1, well b = 2.27e5; uninduced reporter light, run 1, well a = 7360; activity call = inactive
Nmdar2 (GeneID 31107) #3: induced reporter light, run 1, well a = 1.36e5; induced reporter light, run 1, well b = 1.06e5; control promoter light, run 1, well a = 1.68e5; control promoter light, run 1, well b = 2.03e5; uninduced reporter light, run 1, well a = 9870; activity call = inactive
CG14309 (GeneID 42212): induced reporter light, run 1, well a = 1.89e5; induced reporter light, run 1, well b = 1.49e5; control promoter light, run 1, well a = 1.65e5; control promoter light, run 1, well b = 1.86e5; uninduced reporter light, run 1, well a = 10755; activity call = inactive
CG15048 (retired record) (GeneID 32842): induced reporter light, run 1, well a = 97830; induced reporter light, run 1, well b = 92665; control promoter light, run 1, well a = 1.22e5; control promoter light, run 1, well b = 97200; uninduced reporter light, run 1, well a = 12540; activity call = inactive
insc (GeneID 37355): induced reporter light, run 1, well a = 43895; induced reporter light, run 1, well b = 45865; control promoter light, run 1, well a = 46455; control promoter light, run 1, well b = 37660; uninduced reporter light, run 1, well a = 2510; activity call = inactive
mid (GeneID 33770): induced reporter light, run 1, well a = 1.92e5; induced reporter light, run 1, well b = 1.53e5; control promoter light, run 1, well a = 1.72e5; control promoter light, run 1, well b = 1.74e5; uninduced reporter light, run 1, well a = 11065; activity call = inactive
CG12702 (GeneID 32993): induced reporter light, run 1, well a = 75160; induced reporter light, run 1, well b = 79435; control promoter light, run 1, well a = 70895; control promoter light, run 1, well b = 85970; uninduced reporter light, run 1, well a = 8805; activity call = inactive
Tb (GeneID 43212): induced reporter light, run 1, well a = 1.82e5; induced reporter light, run 1, well b = 1.70e5; control promoter light, run 1, well a = 1.92e5; control promoter light, run 1, well b = 1.83e5; uninduced reporter light, run 1, well a = 16825; activity call = inactive
sc (GeneID 30982): induced reporter light, run 1, well a = 99530; induced reporter light, run 1, well b = 74340; control promoter light, run 1, well a = 1.35e5; control promoter light, run 1, well b = 1.24e5; uninduced reporter light, run 1, well a = 9260; activity call = inactive

No new results follow: entries from further up.
Hel89B (GeneID 41943): induced reporter light, run 1, well a = 1.77e5; induced reporter light, run 1, well b = 1.98e5; control promoter light, run 1, well a = 2.49e5; control promoter light, run 1, well b = 2.44e5; uninduced reporter light, run 1, well a = 14460; activity call = inactive
CG9030 (GeneID 32427): induced reporter light, run 1, well a = 93270; induced reporter light, run 1, well b = 84280; control promoter light, run 1, well a = 1.39e5; control promoter light, run 1, well b = 90455; uninduced reporter light, run 1, well a = 14960; activity call = inactive
Kr (GeneID 38012): induced reporter light, run 1, well a = 2.65e5; induced reporter light, run 1, well b = 2.75e5; control promoter light, run 1, well a = 2.02e5; control promoter light, run 1, well b = 2.56e5; uninduced reporter light, run 1, well a = 20085; activity call = inactive
